About 3,700 (7%) of roughly 53,000 sequences were called active.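 Rule for the calls: active = gene knockdowns whose robust z-score for IL-1 alpha signal is at least 2 or at most -2, so actives lie on both sides; inactive = the rest.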 The list shows a part of the results.

This test in a line: Components of the Cytosolic LPS Sensing Pathway: Gene Identification via Genome-wide siRNA Screen.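 Note: robust z of the log signal after scaling to non-targeting control siRNA wells of the plate.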 The conditions noted are these: RAW264.7 macrophages, IL-1a HTRF, actives lie on both sides, screened at 100 nM (by protocol), cells primed 5 h with Pam3CSK4 first. The procedure, abridged:
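RAW264.7; siRNA 100 nM final, RNAiMAX, 48h 37 degrees C; Pam3CSK4 5 h; LipidA + TransIT-TKO 24 h; IL-1a HTRF; CellTiter-Glo viability; robust z vs negative-control median.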
Take CCCAUUAAGGUAUAAUAUCTT against Olfr855: the z-score is inactive: -0.301. With GGUCCUUAGCUGAGUCAUUTT against Tmem254a the figure was inactive: 0.643; with CCCUAAUAGGUCAAUAAAGTT against Vmn1r71, inactive: -0.0066.

For the sequence AACUGUACAUUGAAGCAGATT against Cstf3, the z-score was inactive: 0.391. With GGAGCCUGAAUGCUGUAUUTT against Fam24a the figure was inactive: -0.562; with GGGCAGUCAUAAAGAUACATT against Olfr131, inactive: -0.252; with GCUGUUUUGUCUCCAGCCCTT against Zbtb20, inactive: -0.118. With GCCAUCAAAAUCUCACAAGTT against Ate1, the z-score is inactive: -0.484. Regarding GGAUGUGCACGAAGGACAGTT against Cdh2, the z-score was active: 2.09. Turning to GUGCAGAUAUCUUUAGCAATT against Olfr159, the z-score is inactive: -0.958.

In the case of GGUGUUCAUUACUUUUGAGTT against Irak1bp1, the z-score is inactive: -1.37.

On to GGAUUUGAGAGCCAAUUGUTT against Abo, for which the z-score is inactive: -0.0189. In the case of GGUUAUUUUUGAUGAGACCTT against Ascc2, the z-score was inactive: -0.0563. Consider GGGCAUUUAGAAAUCUUGATT against Prkar2a, for which the z-score is inactive: -0.871. For “GCCGUAUGGAUGUAAAUUATT against D130040H23Rik”, the z-score is inactive: -0.285. Consider GGUGCUGGAGAAGAACAUGTT against Map2k3, for which the z-score is inactive: 1.51. As to GGGACUGGAAACACACACGTT against Etos1, the z-score was inactive: -1.05. As to GCUAACCGAGUUAGUGAGUTT against Lrsam1, the z-score was inactive: -0.49. GACCUGAAGAAGUCAGAUGTT against Sycn: the z-score was inactive: -1.15. The result for GCCAAUCAAGCACUCGCUCTT against Fam71e2 reads inactive: 1.18. With GGGUCUGGUGAAGAACCUUTT against Akr1e1, the z-score is inactive: 0.168. With GGACAAGAGGACUCAGAAATT against Camk1 the figure was inactive: -0.772; with GGUGUCUGAUGAUGAAUAUTT against Cnnm3, inactive: 0.322; with CCUUGGAAAAGCUUGAUGUTT against Pip5k1a, inactive: -1.52. Regarding GGAGAGCAAAUUAAGUUCATT against Erc1, the z-score is inactive: 1.01. As for GGCUAAGUUCUAUAGUAAATT against Crkl, the z-score is inactive: -0.339.

GCGUGAAAUGGAUGAUCAATT against Pacc1: the z-score is inactive: 0.695. As to CGAAAAUCAAGCGGAAUUUTT against Zmiz1, the z-score is active: 2.49. As for GGACCAGCUCAUCACCAAGTT against Spata24, the z-score was inactive: -1.42. In the case of GGGUCAAAGAGAAAAAAGUTT against Hoxa13, the z-score was inactive: -1.2.

For GGGAUAUUGAUAGUUUUUCTT against Haus2, the z-score was inactive: 0.743. Regarding GGCUUUCUCCUACAUAUGCTT against Numbl, the z-score is inactive: -0.976. With CGAGAAGGGUCAUAUGAGCTT against Rbp4 the figure was inactive: -1.84. With GGACAUUUUCAAACAAGGCTT against Mthfs the figure was inactive: -1.07; with GCUCAAUCUAGGGCGAAGATT against Cd247, inactive: 0.12.

For the sequence GCCAACCGUUUUCACAGACTT against Aldh1l1, the z-score is inactive: -0.389. For CGGUUCUGCAUAAAAGAACTT against Slc38a9, the z-score was inactive: -0.836. In the case of CGCUCAUGAACUUGUACUUTT against Gpr137b, the z-score is inactive: -1.27. GGAUCUUAGUAAUAUUGGUTT against Ash2l: the z-score is inactive: -0.72. Turning to CCAGGUCUUAGUAAACAUUTT against Cbln2, the z-score was inactive: 0.609. On to CCGUCCAAAAGGACUUAUCTT against Nap1l2, for which the z-score is inactive: 1.62. In the case of CGUGAACAGCUUUAAGGUGTT against Usp27x, the z-score is inactive: 1.34. On to GGAAAACCUUUGUCAAAAATT against P2ry13, for which the z-score was inactive: 0.169. The result for CCAGGAUGAAAAGUCGUUUTT against Slco2a1 reads inactive: -0.21; that for GGAAGAGGAUAGGCAGGAATT against Gfer, active: 2.03. On to GGAGGAGUGUUGAACUAAATT against Ttc14, for which the z-score is inactive: 1.05. Turning to CCUGUUGAUUAAUUGAAGCTT against E2f2, the z-score was inactive: 0.184. With GGGAACCUAUUGAUAAUCUTT against Rbm39 the figure was inactive: -0.578. Turning to GGAAGACUUUGAAGAAAAATT against Olfr983, the z-score was inactive: -1.43. In the case of GCUAAGAGGUUGUAGUUUUTT against Tbpl1, the z-score is inactive: -0.961.

On to GCUUCGGUCAAAAGUGAGUTT against Glipr1, for which the z-score is inactive: 0.411. The result for CCAGGCAGUAUAAUCAUGUTT against Col4a5 reads inactive: -0.236; that for GGCUCAAUGAGGGAUAAAATT against Qk, inactive: 0.123.

As to GGGACAGAUGCUUUUGUACTT against Samt3, the z-score is inactive: -0.127. With GAAAUAGAGAUGCCUCUCUTT against Olfr1161 the figure was active: 2.52; with GGCCUUGUAACCAACUCCUTT against Sh3bgrl3, inactive: -0.0613; with GCUACUGCCGGAAUUUGGUTT against Tiam1, inactive: 0.497.

Turning to GGACAAGUUAACCAUUUUGTT against Asz1, the z-score is inactive: -0.413. Regarding GGGCCACAUGUGUUCACUATT against Shisa5, the z-score was active: -2.35. With GCUGUACGCCAAUGUGUACTT against Champ1 the figure was inactive: -0.54.

For the sequence GCUCCAAGCUUCUCUAUAGTT against Vmn1r206, the z-score is inactive: -1.89. As for GGCAAUGUAGUGAACAAACTT against Gtpbp1, the z-score was inactive: -0.288. Consider CGGGCUGAAGCUCAUUUCUTT against Gpd1, for which the z-score is inactive: 1.32. The result for GCUCUGAACUCAAUAAUAATT against Atg7 reads inactive: -0.875. Regarding GGGAAGAAAGGAUGGGAAATT against Fev, the z-score was inactive: 0.355.

In the case of GGAACCUCACAUCCAGUGATT against Apol10b, the z-score is inactive: 1.53. Regarding GGAGAAGCCAAAAGAAUGCTT against Xrn2, the z-score was inactive: -0.76.

Regarding GGAGUGAGCAUUUACUUUGTT against Arel1, the z-score is inactive: 0.368.

The values above are taken from PubChem BioAssay AID1508600 (Functional Genomics Laboratory (NCATS/FGL), 2020).
